Experimental data: publication PMC3789215

Protein sequences, listed by entry. Tags and fused reporters are not part of them. Lines headed by an entry give the natural chain unless they say otherwise; changes in a name come on top.
UniProt Q8C6B2: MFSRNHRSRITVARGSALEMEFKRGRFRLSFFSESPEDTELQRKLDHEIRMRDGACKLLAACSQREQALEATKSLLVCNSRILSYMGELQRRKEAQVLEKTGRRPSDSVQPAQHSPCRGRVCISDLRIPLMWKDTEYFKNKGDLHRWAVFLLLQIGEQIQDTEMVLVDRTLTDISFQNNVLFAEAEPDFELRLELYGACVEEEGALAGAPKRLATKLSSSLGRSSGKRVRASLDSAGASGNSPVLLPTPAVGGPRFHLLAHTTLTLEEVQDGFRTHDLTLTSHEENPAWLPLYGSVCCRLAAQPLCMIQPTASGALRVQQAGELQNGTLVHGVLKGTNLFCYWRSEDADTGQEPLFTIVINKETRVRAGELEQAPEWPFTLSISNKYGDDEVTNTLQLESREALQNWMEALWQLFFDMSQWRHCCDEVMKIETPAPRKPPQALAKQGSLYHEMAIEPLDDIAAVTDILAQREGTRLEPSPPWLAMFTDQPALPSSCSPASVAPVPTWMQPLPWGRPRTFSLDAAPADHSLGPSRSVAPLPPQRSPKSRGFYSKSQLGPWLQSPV
UniProt Q9QUI0: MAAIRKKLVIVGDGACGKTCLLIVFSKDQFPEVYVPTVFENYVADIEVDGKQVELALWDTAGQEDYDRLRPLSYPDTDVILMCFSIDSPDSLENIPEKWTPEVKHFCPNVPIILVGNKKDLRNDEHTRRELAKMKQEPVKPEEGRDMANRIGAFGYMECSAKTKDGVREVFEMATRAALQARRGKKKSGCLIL

Tests used:
[1] = molecular target: Rhotekin RBD (Rho-binding domain) agarose beads (UniProt Q8C6B2); assay: pull-down; as a1, with GDP-loaded samples (negative control); only the target purified
[2] = molecular target: Rhotekin RBD (Rho-binding domain) agarose beads (UniProt Q8C6B2); assay: pull-down; Rhotekin RBD agarose beads (40 ul slurry) incubated with mouse heart tissue lysate (naive, sham, 1 month post-SCI; GTPgammaS-loaded samples as positive control), 4 C, 1 h; washed three times in assay lysis buffer; immunoblot with anti-RhoA; only the target purified

- binding [1]: no binding (only GDP-loaded samples)
- binding [2]: binds
Substance: RhoA (from UniProt Q9QUI0 1-193)

These are yes or no findings as the source states them, for the method shown. In cells and extracts the contact can be indirect. For some assays here: Binding can be weak; no strength is given.
